Measurements published in PubChem BioAssay AID248 (DTP/NCI, 2004).
The list is a part of this screen's results and no random one: it is rich in T/C values a quarter to a half above the control, in often repeated tests (any T/C) and in doses without a T/C. Further doses and runs are listed elsewhere. T/C is the treated group as % of the vehicle group. Some entries give survivors of the animals treated and no T/C: the source holds a T/C of zero for them, seemingly a mark for toxic or unscored doses. Some survivor counts are full or nearly so, which does not show that the dose was tolerated: the source hardly ever lists a survival T/C far under the control, and the zero likely stands for such cases as well. Survivors were counted at the toxicity check, usually on the fifth day, unless a day is given; later deaths do not show. Schedules are NCI's codes, taken here to give the interval after Q, in days (D) or hours (H), and the number of doses after X. Some doses were run more than once; the results are listed from low to high. Where survival is the endpoint, the PubChem record calls one and a half times the control and up active, and a quarter to a half above the control has no call in these data; cut-offs in other NCI protocols can differ. Some T/C values are followed by the survivors on the day toxicity was checked, most often the fifth; where none is given, no animal had died by that day.

System: L1210 leukemia ip in BDF1 mice, survival T/C
Assay: NCI In Vivo Anticancer Drug Screen. Data for tumor model L1210 Leukemia (intraperitoneal) in B6D2F1 (BDF1) mice
Details: T/C endpoint: mean survival time, higher T/C = longer survival
[1] = dose: 200.0 mg/kg/injection, schedule: Q01DX009 (ip), vehicle: gum acacia
[2] = dose: 400.0 mg/kg/injection, schedule: Q04DX003 (ip), vehicle: acetone
[3] = dose: 400.0 mg/kg/injection, schedule: Q01DX009 (ip), vehicle: saline with Tween-80
[4] = dose: 400.0 mg/kg/injection, schedule: Q04DX003 (ip), vehicle: saline
[5] = dose: 25.0 mg/kg/injection, schedule: Q01DX009 (ip), vehicle: Klucel (hydroxypropylcellulose) (HPC)
[6] = dose: 100.0 mg/kg/injection, schedule: Q01DX001 (ip), vehicle: Klucel (hydroxypropylcellulose) (HPC)
[7] = dose: 200.0 mg/kg/injection, schedule: Q01DX009 (ip), vehicle: saline with Tween-80
[8] = dose: 100.0 mg/kg/injection, schedule: Q01DX009 (ip), vehicle: saline with Tween-80
[9] = dose: 200.0 mg/kg/injection, schedule: Q01DX005 (ip), vehicle: saline
[10] = dose: 200.0 mg/kg/injection, schedule: Q01DX001 (ip), vehicle: Klucel (hydroxypropylcellulose) (HPC)
[11] = dose: 400.0 mg/kg/injection, schedule: Q01DX001 (ip), vehicle: Klucel (hydroxypropylcellulose) (HPC)

## COc1ccc(C)cc1NC(=O)OCCSc1ccc(Cl)cc1
dose: 100.0 mg/kg/injection, schedule: Q01DX009 (ip), vehicle: gum acacia
  T/C: 93, 94, 95, 99 % of control
[1]
  T/C: 88 and 97 % of control
  survivor count: 3 of 3 and 6 of 6
dose: 200.0 mg/kg/injection, schedule: Q04DX002 (ip), vehicle: gum acacia
  survivor count: 3 of 3

## CNC(=O)c1ccc[n+](CC(=O)Nc2ccc(Cl)cc2)c1
[2]
  survivor count: 3 of 6

## CCOc1ccc(/C=N/Nc2nnc(N/N=C/c3ccc(OCC)c(OCC)c3)c3ccccc23)cc1OCC
dose: 100.0 mg/kg/injection, schedule: Q01DX001 (ip), vehicle: carboxymethylcellulose (CMC)
  survivor count: 3 of 4
dose: 200.0 mg/kg/injection, schedule: Q01DX001 (ip), vehicle: carboxymethylcellulose (CMC)
  survivor count: 2 of 4
dose: 400.0 mg/kg/injection, schedule: Q01DX001 (ip), vehicle: carboxymethylcellulose (CMC)
  survivor count: 1 of 4

## CC(=O)OC(C)(C)Cc1ccccc1
[3]
  survivor count: 2 of 6

## CC(C)(C)NCc1cc(C(C)(C)C)cc(-c2ccccc2)c1O
[4]
  survivor count: 2 of 6

## Cc1c(CNc2ccc(Cl)c(C(=O)NC(CC(=O)O)C(=O)O)c2)ccc2nc(N)nc(N)c12 (centres undefined)
dose: 6.25 mg/kg/injection, schedule: Q01DX009 (ip), vehicle: Klucel (hydroxypropylcellulose) (HPC)
  T/C: 138 % of control
dose: 12.0 mg/kg/injection, schedule: Q01DX009 (ip), vehicle: Klucel (hydroxypropylcellulose) (HPC)
  survivor count: 2 of 6
[5]
  T/C: 138 [4 of 6 alive], 153, 154 % of control [5 of 6 alive]
  survivor count: 1 of 6
dose: 50.0 mg/kg/injection, schedule: Q01DX009 (ip), vehicle: Klucel (hydroxypropylcellulose) (HPC)
  T/C: 138 % of control [5 of 6 alive]
dose: 100.0 mg/kg/injection, schedule: Q01DX009 (ip), vehicle: Klucel (hydroxypropylcellulose) (HPC)
  T/C: 125 % of control
dose: 178.0 mg/kg/injection, schedule: Q01DX001 (ip), vehicle: saline
  T/C: 129 % of control
dose: 200.0 mg/kg/injection, schedule: Q01DX009 (ip), vehicle: Klucel (hydroxypropylcellulose) (HPC)
  survivor count: 0 of 6, 4 of 6, 5 of 6
dose: 200.0 mg/kg/injection, schedule: Q01DX009 (ip), vehicle: saline
  survivor count: 5 of 6
dose: 300.0 mg/kg/injection, schedule: Q01DX009 (ip), vehicle: saline
  survivor count: 1 of 6
dose: 400.0 mg/kg/injection, schedule: Q01DX001 (ip), vehicle: saline
  T/C: 127 % of control [4 of 6 alive]
dose: 600.0 mg/kg/injection, schedule: Q01DX001 (ip), vehicle: saline
  survivor count: 3 of 6

## O=C(O)C1C2CCCCCCC21 (centres undefined)
dose: 400.0 mg/kg/injection, schedule: Q01DX005 (ip), vehicle: Klucel (hydroxypropylcellulose) (HPC)
  survivor count: 1 of 3

## O=[As](O)(CC(O)c1ccccc1)c1ccccc1 (centres undefined)
dose: 25.0 mg/kg/injection, schedule: Q01DX001 (ip), vehicle: saline with Tween-80
  survivor count: 4 of 6
dose: 100.0 mg/kg/injection, schedule: Q01DX001 (ip), vehicle: saline with Tween-80
  survivor count: 0 of 6
dose: 200.0 mg/kg/injection, schedule: Q01DX001 (ip), vehicle: saline with Tween-80
  survivor count: 0 of 6
dose: 400.0 mg/kg/injection, schedule: Q01DX001 (ip), vehicle: saline with Tween-80
  survivor count: 0 of 6

## CCC[CH2][Ge]([CH2]CCC)[O][Ge]([CH2]CCC)[CH2]CCC
dose: 200.0 mg/kg/injection, schedule: Q04DX002 (ip), vehicle: saline with Tween-80
  survivor count: 2 of 3
dose: 400.0 mg/kg/injection, schedule: Q04DX002 (ip), vehicle: saline with Tween-80
  survivor count: 0 of 3

## CCCCCP(=O)(O)O
dose: 400.0 mg/kg/injection, schedule: Q04DX002 (ip), vehicle: saline
  survivor count: 1 of 3

## Cc1cccc(N=Cc2ccc(Cl)cc2Cl)c1C
dose: 400.0 mg/kg/injection, schedule: Q01DX009 (ip), vehicle: alcohol
  survivor count: 5 of 6

## O=C(O)c1c(Br)c(Br)c(Br)c(Br)c1C(=O)Nc1ccccc1F
dose: 400.0 mg/kg/injection, schedule: Q01DX009 (ip), vehicle: Klucel (hydroxypropylcellulose) (HPC)
  survivor count: 0 of 6

## c1ccc(N/N=C(\C(=N\Nc2ccccc2)c2ccccc2)c2ccccc2)cc1
[6]
  survivor count: 6 of 6

## CN1CCN(C(=O)c2ccc(Cl)c(Cl)c2)CC1
dose: 100.0 mg/kg/injection, schedule: Q04DX003 (ip), vehicle: saline
  survivor count: 3 of 6
[7]
  survivor count: 0 of 6
dose: 200.0 mg/kg/injection, schedule: Q04DX003 (ip), vehicle: saline
  survivor count: 0 of 6
[4]
  survivor count: 0 of 6

## CCCCCC(C[N+](C)(C)C)C(=O)/C=C/c1ccc(Cl)cc1 (centres undefined)
[8]
  survivor count: 4 of 6
[7]
  survivor count: 0 of 6
[3]
  survivor count: 0 of 6
dose: 400.0 mg/kg/injection, schedule: Q04DX003 (ip), vehicle: Klucel (hydroxypropylcellulose) (HPC)
  survivor count: 2 of 6

## CCN(CC)CCOC(=O)c1ccccc1N(c1ccccc1)c1ccccc1
dose: 200.0 mg/kg/injection, schedule: Q04DX003 (ip), vehicle: acetone
  survivor count: 1 of 6
dose: 225.0 mg/kg/injection, schedule: Q01DX009 (ip), vehicle: acetone
  survivor count: 1 of 6
dose: 250.0 mg/kg/injection, schedule: Q01DX015 (ip), vehicle: saline
  survivor count: 0 of 6
[2]
  survivor count: 0 of 6
dose: 500.0 mg/kg/injection, schedule: Q01DX015 (ip), vehicle: saline
  survivor count: 0 of 6

## NCc1cn(C2OC(CO)C(O)C2O)c2ncnc(N)c12 (centres undefined)
dose: 6.25 mg/kg/injection, schedule: Q01DX009 (ip), vehicle: saline
  survivor count: 6 of 6
dose: 12.5 mg/kg/injection, schedule: Q01DX005 (ip), vehicle: saline
  survivor count: 2 of 6
dose: 100.0 mg/kg/injection, schedule: Q01DX005 (ip), vehicle: saline
  survivor count: 0 of 6
[9]
  survivor count: 0 of 6

## NC(=O)c1nccnc1Cl
[3]
  survivor count: 2 of 6

## O=C(/C=C/CBr)NC(Cc1ccccc1)C(=O)O (centres undefined)
dose: 150.0 mg/kg/injection, schedule: Q01DX001 (ip), vehicle: other
  survivor count: 1 of 6
dose: 300.0 mg/kg/injection, schedule: Q01DX001 (ip), vehicle: other
  survivor count: 0 of 6

## O=C1CCCCCN1
dose: 400.0 mg/kg/injection, schedule: Q01DX009 (ip), vehicle: saline
  survivor count: 3 of 6

## ClCCOC(OCCCl)OCCCl
[3]
  survivor count: 3 of 6

## C=CC[Se]c1ncnc2c1ccn2C1OC(CO)C(O)C1O (centres undefined)
[9]
  survivor count: 1 of 6

## O=C1C2CCC(=O)N2c2ccccc2S(=O)(=O)C1c1ccccc1 (centres undefined)
dose: 12.5 mg/kg/injection, schedule: Q04DX003 (ip), vehicle: Klucel (hydroxypropylcellulose) (HPC)
  survivor count: 6 of 6

## CCOc1ccccc1C1CCCCC1OS(=O)(=O)c1ccc(C)cc1 (centres undefined)
dose: 50.0 mg/kg/injection, schedule: Q01DX009 (ip), vehicle: acetone
  survivor count: 6 of 6

## c1ccc(C2=NC(c3ccccc3)NC2c2ccccc2)cc1 (centres undefined)
[6]
  survivor count: 1 of 6 and 3 of 6
[10]
  survivor count: 2 of 6
[11]
  survivor count: 2 of 6

## CCOP(=S)(S)OCC
[4]
  survivor count: 1 of 6

## CN1C2CCCC1CC(O)(c1ccccc1)C2 (centres undefined)
[6]
  survivor count: 1 of 6
[10]
  survivor count: 0 of 6
[11]
  survivor count: 0 of 6

## Cc1cc(CN(C)C)cc(C(C)C)c1O
dose: 50.0 mg/kg/injection, schedule: Q01DX009 (ip), vehicle: saline with Tween-80
  survivor count: 2 of 6
[8]
  survivor count: 0 of 6
[7]
  survivor count: 0 of 6
[3]
  survivor count: 0 of 6
